# Data reported in PubChem BioAssay AID602313 (National Center for Advancing Translational Sciences (NCATS), 2012).
# The whole screen tested about 390,000 compounds, of which about 760 (0.19%) were called active. This list was built around the results that the source calls inconclusive (neither active nor inactive); the mix of calls is not that of the screen. Calls follow the shape of the dose curve; as a rule, active = well fitted inhibition curve with a large enough effect; inconclusive = small, poorly fitted or top-dose-only effect; inactive = flat fitted curve, though single readings scatter. Where the call is inconclusive, the potency comes from a doubtful curve fit.
# Test: qHTS for Inhibitors of Vif-A3F Interactions: qHTS; also: nearly all actives have a fitted effect of over 65% in size
# Conditions: HeLa A3F-eYFP + Vif (tagged APOBEC3F with the HIV-1 protein that degrades it), YFP fluorescence increase; series mostly up to 46.1 µM
# Procedure, shortened: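 HeLa cells stably expressing Vif plus C-terminally eYFP-tagged A3F were seeded, incubated overnight at 37 deg C, dosed with compound, incubated overnight again at 37 deg C. Yellow fluorescence (Ex 488/Em 500-530) reported blocked Vif-mediated A3F-eYFP degradation.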
# Potency is read from the fitted curve at half-maximal effect.
row,SMILES,Potency
1,COc1ccc(CCNC(=O)c2cc3c(=O)n4cccc(C)c4nc3n(CCCN3CCOCC3)c2=N)cc1,inactive
2,CCCc1nc2ccccc2n2c(-c3ccc(C)cc3)c3c(=O)n(C)c(=O)n(C)c3c12,inactive
3,CCCCCCc1c(O)nc(SCCN2CCOCC2)[nH]c1=O,"inconclusive: 1.26 µM [inhibitor, partial curve, poor fit]"
4,O=C(CN1CCN(C(=O)C2COc3ccccc3O2)CC1)Nc1ccc(F)cc1 (centres undefined),"inconclusive: 12.6 µM [inhibitor, partial curve, poor fit]"
5,CCOC(=O)Cc1c(C)c2ccc(N(CC)CC)cc2oc1=O,inactive
6,O=C(Nc1ncc2c(n1)CC(c1ccco1)CC2=O)c1ccc(Cl)cc1 (centres undefined),"inconclusive: 25.1 µM [inhibitor, partial curve, poor fit]"
7,CCOC(=O)c1sc(NC(=O)c2cccs2)cc1C,inactive
8,Cc1cc(C)c(NC(=O)Cn2c(=O)n(Cc3ccco3)c(=O)c3ccc(C(=O)NC4CCCC4)cc32)c(C)c1,"inconclusive: 7.08 µM [inhibitor, partial curve, poor fit]"
9,CN(C)CCCN(C(=O)c1ccc(Br)s1)c1nc2cc3c(cc2s1)OCO3,"inconclusive: 15.8 µM [inhibitor, single point]"
10,COc1ccc([N+](=O)[O-])cc1N(CC(=O)NCc1ccco1)S(C)(=O)=O,"inconclusive: 3.55 µM [inhibitor, single point]"
11,COc1ccc(S(=O)(=O)Cc2ccc(C(=O)N3CCN(c4cccc(C)c4)C(C)C3)o2)cc1 (centres undefined),inactive
12,CCN(CC)C(=O)CSc1nc2ccccc2c(=O)n1OC,"inconclusive: 3.55 µM [inhibitor, single point]"
13,CCOc1ccc2nc(N3C(=O)CNC3=S)sc2c1,"inconclusive: 3.16 µM [inhibitor, single point]"
14,CCOC(=O)c1noc2ncnc(N3CCC(C)CC3)c12,inactive
15,CCOc1cc(/C=C/C(=O)c2ccc(C)cc2)ccc1OCC(=O)N(C)C,inactive
16,CNC(=O)C1CC(=O)N(CCc2ccc(C)cc2)C1 (centres undefined),"inconclusive: 17.8 µM [inhibitor, single point]"
17,Cc1cc(C)c(NC(=S)NC(=O)c2ccccc2)cc1C,"inconclusive: 35.5 µM [inhibitor, partial curve, poor fit]"
18,Cc1ccc(OCCOC(=O)Nc2ccccc2)cc1,inactive
19,O=C/C(=C\Nc1ccccn1)c1nc2cc(Cl)ccc2o1,inactive
20,Cc1cccc(NC(=S)NCCc2ccccc2)c1C,"inconclusive: 8.91 µM [inhibitor, partial curve]"
21,O=S(=O)(c1ccc(F)cc1)N1CCN(S(=O)(=O)c2cc(F)ccc2F)CC1,inactive
22,CNC(=O)c1cc(Nc2nnc(-c3ccc(O)cc3)c3ccccc23)ccc1OC,inactive
23,CCCCCCCCCCS(=O)(=O)N/N=C/c1ccc(O)cc1,inactive
24,Cc1cccc(C(=O)N[C@H](C(=O)Nc2ncc(C)s2)C(C)C)c1,"inconclusive: 35.5 µM [inhibitor, single point]"
25,Cc1ccccc1-c1nc(CS(=O)CC(=O)NC2CCCC2)c(C)o1 (centres undefined),inactive

# A run of entries taken from the entries so far:
row,SMILES,Potency
10,COc1ccc([N+](=O)[O-])cc1N(CC(=O)NCc1ccco1)S(C)(=O)=O,"inconclusive: 3.55 µM [inhibitor, single point]"
11,COc1ccc(S(=O)(=O)Cc2ccc(C(=O)N3CCN(c4cccc(C)c4)C(C)C3)o2)cc1 (centres undefined),inactive
12,CCN(CC)C(=O)CSc1nc2ccccc2c(=O)n1OC,"inconclusive: 3.55 µM [inhibitor, single point]"
13,CCOc1ccc2nc(N3C(=O)CNC3=S)sc2c1,"inconclusive: 3.16 µM [inhibitor, single point]"
14,CCOC(=O)c1noc2ncnc(N3CCC(C)CC3)c12,inactive
15,CCOc1cc(/C=C/C(=O)c2ccc(C)cc2)ccc1OCC(=O)N(C)C,inactive

# (listing goes on)

row,SMILES,Potency
1,Cc1cc(NC(=O)CN2C(=O)NC3(CCCCCC3)C2=O)no1,"inconclusive: 35.5 µM [inhibitor, single point]"
2,C=CCSc1nc2sc3c(c2c(=O)n1CC)CCC3,active: 22.4 µM
3,COc1cc(N(C(=O)Cc2cccs2)C(C(=O)NC2CCCCC2)c2cccc(OC)c2OC)ccc1-n1cnnn1 (centres undefined),inactive
4,N#CC(=C(O)COC(=O)c1ccc2c(c1)OCCO2)c1nc2ccccc2[nH]1,"inconclusive: 3.55 µM [inhibitor, partial curve, poor fit]"
5,COc1ccc(S(=O)(=O)N2CCCCC2)cc1C(=O)Nc1cccc(C(F)(F)F)c1,"inconclusive: 35.5 µM [inhibitor, single point]"
6,COc1ccccc1CN1COc2ccc3c(oc(=O)c4ccccc43)c2C1,inactive
7,COc1ccc(-n2nc3c(N4CCCC(C(=O)NCc5cccc(F)c5)C4)nnc(C)c3c2C)cc1 (centres undefined),"inconclusive: 35.5 µM [inhibitor, single point]"
8,COc1cc2ncc(C(=O)c3ccccc3)c(N3CCN(Cc4ccccc4)CC3)c2cc1OC,inactive
9,Cc1c(C#N)c(NC(=O)CCl)n(Cc2ccccc2)c1C,"inconclusive: 35.5 µM [inhibitor, single point]"
10,O=C(Nc1ccc(C(=O)N2CCCc3ccccc32)cc1)c1cccs1,inactive
11,CCC(CC)COC(=O)C1=C(C)NC(=O)NC1c1ccc2c(c1)OCO2 (centres undefined),inactive
12,COc1ccc(/C=C2\SC(=S)N(CC3CCCO3)C2=O)cc1 (centres undefined),inactive
13,CCn1c(CNC(=O)C23CC4CC(CC(C4)C2)C3)nnc1SCC(=O)Nc1ccccc1,"inconclusive: 5.62 µM [inhibitor, single point]"
14,O=C(CSc1ccc(-c2cccnc2)nn1)Nc1ccc(F)cc1F,inactive
15,C=C[C@@H]1c2c(F)cccc2N(S(=O)(=O)c2ccc(C)cc2)[C@H](c2ccc(OC(C)=O)cc2)C1(C#N)C#N,"inconclusive: 35.5 µM [inhibitor, single point]"
16,O=C(/C=C/c1cccnc1)c1ccc([N+](=O)[O-])cc1,"inconclusive: 6.31 µM [inhibitor, single point]"
17,CCOC(=O)C1=C(O)c2ccccc2C(=O)/C1=C\c1ccc(CC)cc1,active: 22.4 µM
18,CCOc1ccc(NC(=O)CC2C(=O)OCCN2CC)cc1 (centres undefined),inactive
19,CN(C)c1ccc(/C=C2\SC(=O)N(CC(O)Cn3c4ccccc4c4ccccc43)C2=O)cc1 (centres undefined),"inconclusive: 35.5 µM [inhibitor, single point]"
20,O=C(NCCS(=O)(=O)N1CCN(c2ccccc2)CC1)C(c1ccccc1)c1ccccc1,inactive
21,O=C(O)c1ccc(N/N=C/C=C/c2ccc([N+](=O)[O-])o2)cc1,"inconclusive: 22.4 µM [inhibitor, single point]"
22,Cc1cc(/C=N/NC(N)=S)c(O)c(/C=N/NC(N)=S)c1,"inconclusive: 35.5 µM [inhibitor, partial curve, poor fit]"
23,O=C(NC(=S)Nc1ccccc1Br)c1ccco1,"inconclusive: 22.4 µM [inhibitor, single point]"
24,Cc1ccc2nc3sc(C(=O)Nc4c(C)[nH]c(=O)[nH]c4=O)c(N)c3cc2c1,"inconclusive: 31.6 µM [inhibitor, single point]"
25,COc1ccc(/C=N/Nc2cc(C)nc3ccccc23)cc1,inactive

row,SMILES,Potency
1,Cc1ccc2[nH]c(O)c(N=Nc3ccccc3C)c2c1,"inconclusive: 4.47 µM [inhibitor, single point]"
2,NC(=O)N/N=C/c1cn(-c2ccccc2)nc1-c1ccccc1,inactive
3,Cc1nc2ccccc2nc(C)c1=NOCc1ccccc1Cl,"inconclusive: 20 µM [inhibitor, single point]"
4,O=C(c1ccc(-c2ccc([N+](=O)[O-])cc2)o1)N1CCCC(C(F)(F)F)C1 (centres undefined),inactive
5,CCOc1ccc(N2C(=O)C3Sc4[nH]c(=O)sc4C(/C=C/c4ccccc4)C3C2=O)cc1 (centres undefined),"inconclusive: 10 µM [inhibitor, partial curve, poor fit]"
6,Cc1cc(C)nc(N2CCC(C(=O)NCc3ccco3)CC2)n1,"inconclusive: 2.82 µM [inhibitor, partial curve, poor fit]"
7,O=C(OC1CCCCC1)c1ccc(NC(=O)c2ccco2)cc1,inactive
8,COCCCn1c(=O)/c(=C\c2ccccc2OC(C)C)s/c1=C(/C#N)C(=O)Nc1ccc(C(=O)O)cc1,"inconclusive: 35.5 µM [inhibitor, partial curve, poor fit]"
9,O=C(Nc1ccc(N2CCCC2)cc1)c1ccccc1F,inactive
10,O=C(COc1ccccc1)OCC(=O)c1ccc(O)cc1O,inactive
11,O=C(O)CNC(=O)c1ccc2c(c1)OCCO2,inactive
12,O=[N+]([O-])c1ccc(OCC(O)CN(CCO)CCO)cc1 (centres undefined),"inconclusive: 5.62 µM [inhibitor, single point]"
13,COC(=O)Cn1c(=NC(=O)c2ccc(S(=O)(=O)N3CCc4ccccc4C3)cc2)sc2cc(OC)ccc21,inactive
14,COc1ccc(-c2nnc(C3CCN(C(=O)c4ccccc4F)CC3)o2)cc1,"inconclusive: 2.24 µM [inhibitor, full curve, poor fit]"
15,Cc1noc(C)c1C(=O)NCc1ccccc1Br,"inconclusive: 6.31 µM [inhibitor, full curve, poor fit]"
16,Cc1cccc2nc(COc3ccc4ccccc4c3Br)cn12,"inconclusive: 20 µM [inhibitor, single point]"
17,COc1ccc(C(=O)NC(CCSC)C(=O)NCc2nnc3ccccn23)cc1 (centres undefined),"inconclusive: 5.62 µM [inhibitor, single point]"
18,CC1=CCC2C(=O)N(c3ccc(S(N)(=O)=O)cc3)C(=O)C2C1 (centres undefined),"inconclusive: 0.562 µM [inhibitor, partial curve, poor fit]"
19,CN1CCN(NC(=O)c2cn(-c3ccccc3)nc2-c2cccc(Br)c2)CC1,"inconclusive: 17.8 µM [inhibitor, single point]"
20,N#CC(=Cc1cccs1)c1nc(-c2ccc(Cl)cc2)cs1,"inconclusive: 3.55 µM [inhibitor, full curve, poor fit]"
21,COC(=O)c1cc2c(C)c(C)c3ccccn3c-2c1C(=O)OC,"inconclusive: 20 µM [inhibitor, partial curve, poor fit]"
22,Cc1ccc(C)n1Cc1ccc(C(=O)O)cc1,inactive
23,Oc1ccc(/C=N/NC(=S)Nc2cccnc2)c(O)c1,inactive
24,CCOc1ccc(/C=C(\C#N)c2nc3ccccc3c(=O)[nH]2)cc1OC,inactive
